Primary screen of a compound library

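Whole-cell assay for inhibitors of Mycobacterium tuberculosis growth, labelled Cornell in the record; the read-out is not stated. The concentration is filed as 10 mM, unlikely as a test dose, so the dose is not known. Higher means stronger inhibition (inferred from two other growth screens of the library). Of about 53,000 compounds tested this way, about 900 (1.7%) reached 50% or more in at least one test.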

Each number is a percent effect as filed.
The record does not define 0% and 100%; most values in the screen are far below 50% and negative numbers occur (in some assays of this library far below -100).
Compounds were drawn at random from those tested, without regard to their results.

SMILES | effect
O=C(CSc1nc2nncc-2c(O)n1-c1ccccc1)N1CCOCC1 | 27.46
COc1cc(CCC(=O)NCC2CCCN2C)ccc1OCC(F)(F)F (stereo not shown) | 19.14
CC(C)C(=O)NC1CCN(c2cccc(OC(F)(F)F)c2)C1=O (stereo not shown) | -3.493
COc1ccc(CNC(Cn2cncn2)c2ccccc2)cc1O (stereo not shown) | 18.84
O=C(O)C(F)(F)F.[H][C@@]12CN(C(=O)C3CC3)C[C@]1([H])C(=O)N(Cc1csc(C)n1)C2 | -26.99
CS(=O)(=O)N1CC(c2ccnc(Nc3ccccn3)n2)C1 | 3.174
C1CCC(NCCN2CCOCC2)C1 | -19.32
O=C(NCC(O)c1ccc(F)c(F)c1)c1cccnc1O (stereo not shown) | 14.64
COc1ccccc1-c1c[nH]c(C2CCCN2)n1.Cl.Cl (stereo not shown) | 37.34
Cc1nc(C)n(CC2CCCN2Cc2coc(-c3cccs3)n2)n1 (stereo not shown) | 14.42
COCCN(C)C1COC2(CCN(Cc3ccccn3)CC2)C1.O=C(O)C(F)(F)F.O=C(O)C(F)(F)F (stereo not shown) | -45.22
O=C(O)C(F)(F)F.[H][C@@]12C[C@H](c3nc(C)no3)CN(Cc3ccc(CC)o3)[C@]1([H])CCO2 | 28.15
CCN1CCCC(O)(c2nc(C)c(CCOc3ccccc3Cl)s2)CC1 (stereo not shown) | 12.65
[H][C@@]12CCCO[C@]1([H])[C@H](N(C)C)CN(c1nnc(C)s1)C2 | -32.14
[H][C@]12CC[C@]([H])(CN(Cc3cccnc3)C1)N(C(=O)CSc1ccncc1)C2 | 4.215
Cc1nc(C(=O)N2CCC(c3nnc(Cn4ccnc4)n3C)CC2)cs1 | 8.546
COCCN(Cc1ccccc1Cl)C(=O)c1c(C)cc(C)[nH]c1=O | -12.27
[H][C@]12CN(c3cnn(C)c3)C(=O)[C@@]1([H])CN(S(=O)(=O)CC)C2 | 18.45
O=C(O)C(F)(F)F.O=C(O)C(F)(F)F.[H][C@@]12CCCO[C@]1([H])[C@@H](OCc1cccc(C)n1)CN2c1nnc(C)s1 | 22.01
COCC(=O)N1CCCC2(CCN(c3ccccc3)C2=O)C1 (stereo not shown) | 13.96
COCCNC(=O)C1(c2ccccc2C)CCOCC1 | -11.61
O=C(c1cc(-c2ccn(CC3CC3)n2)n2ccccc12)N1CCCO1 | 45.3
CC(O)CNC(=O)c1nc(Cc2c(Cl)cccc2Cl)no1 (stereo not shown) | 19.28
O=C(O)C(F)(F)F.[H][C@]12CC[C@@]3(N=C(CC)NC3=O)[C@@]1([H])CN(Cc1ccccc1F)C2 | 16.6
CCCn1nc(C)c(CNC(=O)C2COc3ccc(OC)cc3C2)c1C (stereo not shown) | -7.469
COc1ccncc1NCc1cscn1 | 26.83
Cl.Cn1cc(CN(Cc2ccccc2)Cc2ccccn2)cn1 | -27.54
Cc1cc(C(=O)CN2CCN(c3nccs3)CC2)c(C)n1C1CC1 | 7.889
Cc1cnn(CC(C)NCc2cccc(C#N)c2)c1 (stereo not shown) | -38.36
[H][C@]12CC[C@@]3(N=C(c4ccccc4)NC3=O)[C@@]1([H])CN(Cc1ccncc1)C2 | 20.29
O=C(O)C(F)(F)F.O=C(O)C(F)(F)F.[H][C@@]12CCCO[C@]1([H])[C@H](N1CCCC1)CN(C(=O)c1ccc(C)nc1)C2 | 9.166
Nc1ncc(C(=O)N2CCCC(N)CC2)c(-c2ccccc2)n1 (stereo not shown) | -23.37
COC(=O)c1ccc(NC(=O)[C@@H]2CCCN2C(=O)c2ccco2)s1 | -15.76
Cc1ccc(S(=O)(=O)NC(=O)C2(c3ccccc3)CCC2)c(C)c1 | 44.03
COCC1(NC(=O)Nc2nc(C)ns2)CCCC1 | 21.01
CCS(=O)(=O)N1CCC(Nc2c(F)cc(C#N)cc2F)CC1 | -47.35
COCCCS(=O)(=O)N1CCN(C(C)(C)CO)CC1 | 4.511
CC(NC(=O)c1cn(CCC2CCCCC2)nn1)c1cnn(C)c1 (stereo not shown) | -6.193
COc1cccc2c1OCC(Cc1cnc(N)c(C)c1)C2 (stereo not shown) | 15.76
Cc1nn(C)c(C)c1C1CCCN1C(=O)c1ccc(NC2CC2)nc1 (stereo not shown) | 16.62
CN(C(=O)c1cccc(C(=O)NS(C)(=O)=O)c1)c1ccccc1 | 31.24
O=C1CC(c2ccncc2)C2(CCN(C(=O)c3ccnnc3)CC2)N1 (stereo not shown) | 22.94
Cc1nc(C2CCCN2C(=O)Cc2cccc(F)c2)nc(O)c1C (stereo not shown) | -49.83
CCc1nc(Cn2cncc(Br)c2=O)no1 | -26.46
O=C(c1ccsc1)N1CCc2nnc(COc3cncnc3)n2CC1 | -84.15
CC(C)N1CCOCC2(CN(Cc3nccs3)CCO2)C1.O=C(O)C(F)(F)F.O=C(O)C(F)(F)F (stereo not shown) | -2.993
O=C(O)C(F)(F)F.O=C(O)C(F)(F)F.[H][C@@]12OCCN(C3CCC3)[C@@]1([H])CC[C@@H]2Oc1cccnc1 | -10.45
Cc1csc(CNCC2CCCN(C(=O)OC(C)(C)C)C2)n1 (stereo not shown) | 8.559
O=C(CCNC(=O)C1=Cc2ccccc2OC1)NCc1ccncc1 | 15.65
O=C1CC(c2ccc(O)cc2)c2c(n3ccsc3nc2=O)N1 (stereo not shown) | 13.23
[H][C@]12CC[C@]([H])(CN(C(=O)C3CCC3)C1)N(C(=O)c1ccccc1SC)C2 | -15.66
O=C(O)C(F)(F)F.O=C(O)C(F)(F)F.O=S1(=O)c2ccccc2C2(CCN(Cc3cccnc3)C2)N1CC1CC1 (stereo not shown) | -29.32
CC1CCN(CCNC(=O)c2cncnc2C(C)C)CC1 | 6.571
CN(CC1COc2ccccc2O1)C(=O)C1=NN(C)C(=O)CC1 (stereo not shown) | 21.15
CCN(CC)Cc1nnc2sc(C(C)Oc3ccccc3)nn12 (stereo not shown) | -19.03
OC[C@@H]1CCCN1c1nccc(-c2c[nH]nc2-c2ccncc2)n1 | 10.8
CCn1c(Cn2cncn2)nnc1C1CCN(C2CCOCC2)CC1 | -54.51
CCn1nc(CNC(=O)C2CCCN(C(=O)COC)C2)c2ccccc21 (stereo not shown) | 19.89
COCCN(Cc1ccco1)Cc1nc(-c2ccccc2C)no1 | 26.02
Cc1nc(O)cc(CCNc2nccc(CCC(F)(F)F)n2)n1 | 3.925
CCN1CC(C(=O)NCc2ccnc(-n3ccnc3C)c2)CC1=O (stereo not shown) | 8.64
CC(NCc1cccc2c1OCCO2)c1cc2c(cc1Br)OCCO2 (stereo not shown) | 22.64
CCn1cnnc1CCNC(=O)CCNC(=O)c1ccccc1F | 15.6

The last 7 entries again:

With CCn1c(Cn2cncn2)nnc1C1CCN(C2CCOCC2)CC1 the screen gave -54.51%.
With CCn1nc(CNC(=O)C2CCCN(C(=O)COC)C2)c2ccccc21 (stereo not shown) the screen gave 19.89%.
With COCCN(Cc1ccco1)Cc1nc(-c2ccccc2C)no1 the screen gave 26.02%.
With Cc1nc(O)cc(CCNc2nccc(CCC(F)(F)F)n2)n1 the screen gave 3.925%.
With CCN1CC(C(=O)NCc2ccnc(-n3ccnc3C)c2)CC1=O (stereo not shown) the screen gave 8.64%.
With CC(NCc1cccc2c1OCCO2)c1cc2c(cc1Br)OCCO2 (stereo not shown) the screen gave 22.64%.
With CCn1cnnc1CCNC(=O)CCNC(=O)c1ccccc1F the screen gave 15.6%.

Source: ChEMBL document CHEMBL3988442, “University of Dundee, Small-Polar-MMV Screening Library” (2021).